Experimental data published in the supplement of paper PMC7877785.
± gives the uncertainty stated by the source. Many entries were measured with a wide error.

Test: self-splicing fitness, log relative to wild type (ln ratio); higher = more splicing; Tetrahymena group I intron in knt gene, E. coli kanamycin selection, DiMSum; sequences stand for … in CUCUCU…GGAGGGAAAAGUUAUCAGGCAUGCACCUGGUAGCUAGUCUUUAAACCAAUAGAUUGCAUCGGUUUAAAAGGCAAGACCGUCAAAUUGCGGGAAAGGGGUCAACAGCCGUUCAGUACCAAGUCUCAGGGGAAACUUUGAGAUGGCCUUGCAAAGGGUAUGGUAAUAAGCUGACGGACAUGGUCCUAACCACGCAGCCAAGUCCUAAGUCAACAGAUCUUCUGUUGAUAUGGAUGCAGUUCACAGACUAAAUGUCGGUCGGGGAAGAUGUAUUCUUCUCAUAAGAUAUAGUCGGACCUCUCCUUAAUGGGAGCUAGCGGAUGAAGUGAUGCAACACUGGAGCCGCUGGGAACUAAUUUGUAUGCGAAAGUAUAUUGAUUAGUUUUGGAGUACUCGUGGUCG
How it was run: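 Colonies from six replicate transformations of E. coli BL21(DE3) were pooled and amplicon-sequenced on an Illumina HiSeq 2500. The library placed an intron with all eight P1ex-region nucleotides randomised inside the knt kanamycin-resistance gene on pET-22b(+), and cells grew overnight at 37°C or 30°C on LB agar with or without 25 μg/mL kanamycin (plus 100 μg/mL carbenicillin, 50 μM IPTG, 0.2% rhamnose). Fitness is the DiMSum error-weighted combination of wild-type-normalised replicate fold changes, kanamycin versus none.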

CUGAAGCAAUAUUACGAGGG
self-splicing fitness (ln) (30 °C): -2.03 ± 0.11 | self-splicing fitness (ln) (37 °C): -1.25 ± 0.14

AGUCAGCAAUAUUACGGCUU
self-splicing fitness (ln) (30 °C): -4.02 ± 0.6

UCACAGCAAUAUUACGUCUA
self-splicing fitness (ln) (30 °C): -1.25 ± 0.077 | self-splicing fitness (ln) (37 °C): -0.331 ± 0.075

UUGUAGCAAUAUUACGUCCC
self-splicing fitness (ln) (30 °C): -2.32 ± 0.67

GAGCAGCAAUAUUACGAGGC
self-splicing fitness (ln) (37 °C): -1.54 ± 1.2

AUUGAGCAAUAUUACGCUAG
self-splicing fitness (ln) (30 °C): -4.38 ± 0.72

ACAGAGCAAUAUUACGCGAC
self-splicing fitness (ln) (30 °C): -4.22 ± 0.72 | self-splicing fitness (ln) (37 °C): -2.93 ± 0.74

AGAGAGCAAUAUUACGACCG
self-splicing fitness (ln) (37 °C): -0.915 ± 0.56

AGUAAGCAAUAUUACGCGGC
self-splicing fitness (ln) (30 °C): -4.24 ± 0.59

GUCCAGCAAUAUUACGACCG
self-splicing fitness (ln) (37 °C): -2.12 ± 0.78

AUCGAGCAAUAUUACGCCAG
self-splicing fitness (ln) (37 °C): -2.23 ± 0.8

CUGAAGCAAUAUUACGGACC
self-splicing fitness (ln) (30 °C): -4.49 ± 1

UUAGAGCAAUAUUACGCCCU
self-splicing fitness (ln) (30 °C): -3.06 ± 1.1

GCUGAGCAAUAUUACGUCUC
self-splicing fitness (ln) (30 °C): -2.4 ± 0.67

ACCUAGCAAUAUUACGCCAC
self-splicing fitness (ln) (37 °C): -3.33 ± 0.52

CCCGAGCAAUAUUACGCUCC
self-splicing fitness (ln) (30 °C): -2.93 ± 0.54 | self-splicing fitness (ln) (37 °C): -2.23 ± 0.79

AGUGAGCAAUAUUACGCGCC
self-splicing fitness (ln) (37 °C): -2.02 ± 0.58

CUUCAGCAAUAUUACGGCCA
self-splicing fitness (ln) (30 °C): -3.53 ± 0.76 | self-splicing fitness (ln) (37 °C): -2.05 ± 1.1

UUUGAGCAAUAUUACGAUCC
self-splicing fitness (ln) (30 °C): -2.65 ± 1.1 | self-splicing fitness (ln) (37 °C): -0.892 ± 0.57

CGUGAGCAAUAUUACGAUUA
self-splicing fitness (ln) (30 °C): -2.84 ± 0.56

AACUAGCAAUAUUACGGAUG
self-splicing fitness (ln) (30 °C): -2.26 ± 0.067 | self-splicing fitness (ln) (37 °C): -1.03 ± 0.072

GUGCAGCAAUAUUACGUCUG
self-splicing fitness (ln) (30 °C): -3.63 ± 1 | self-splicing fitness (ln) (37 °C): -1.37 ± 0.55

UAACAGCAAUAUUACGCGGA
self-splicing fitness (ln) (30 °C): -2.12 ± 0.11 | self-splicing fitness (ln) (37 °C): 0.0542 ± 0.076

UAUGAGCAAUAUUACGCCGU
self-splicing fitness (ln) (30 °C): -2.95 ± 0.77

UUUGAGCAAUAUUACGACCG
self-splicing fitness (ln) (30 °C): -4.38 ± 0.72

GGGAAGCAAUAUUACGAAGG
self-splicing fitness (ln) (30 °C): -4.37 ± 1 | self-splicing fitness (ln) (37 °C): -2.99 ± 0.6

CUCCAGCAAUAUUACGAAUC
self-splicing fitness (ln) (30 °C): -4.52 ± 0.59 | self-splicing fitness (ln) (37 °C): -2.09 ± 0.55

UUAGAGCAAUAUUACGCUAC
self-splicing fitness (ln) (37 °C): -3.3 ± 0.6

GCAAAGCAAUAUUACGCUGC
self-splicing fitness (ln) (37 °C): -3.6 ± 1

CUGCAGCAAUAUUACGAAAA
self-splicing fitness (ln) (30 °C): -4.13 ± 1

CAACAGCAAUAUUACGGGAU
self-splicing fitness (ln) (30 °C): -3.7 ± 0.15 | self-splicing fitness (ln) (37 °C): -2.08 ± 0.15

GGUCAGCAAUAUUACGUGUU
self-splicing fitness (ln) (30 °C): -0.208 ± 0.047 | self-splicing fitness (ln) (37 °C): 0.537 ± 0.063

UCAUAGCAAUAUUACGGCGU
self-splicing fitness (ln) (30 °C): -3.73 ± 0.14 | self-splicing fitness (ln) (37 °C): -3.17 ± 0.19

UCCGAGCAAUAUUACGAUCA
self-splicing fitness (ln) (30 °C): -4.24 ± 0.59

CUAGAGCAAUAUUACGCCGA
self-splicing fitness (ln) (30 °C): -2.81 ± 0.63

UGUUAGCAAUAUUACGUCCC
self-splicing fitness (ln) (30 °C): -1.51 ± 0.67

CUAGAGCAAUAUUACGCGUC
self-splicing fitness (ln) (30 °C): -3.79 ± 0.52 | self-splicing fitness (ln) (37 °C): -1.98 ± 0.51

CUUUAGCAAUAUUACGAGCC
self-splicing fitness (ln) (30 °C): -2.25 ± 1.1 | self-splicing fitness (ln) (37 °C): -2.79 ± 1.1

CCACAGCAAUAUUACGUGCC
self-splicing fitness (ln) (30 °C): -1.6 ± 0.15 | self-splicing fitness (ln) (37 °C): -2.36 ± 0.21

GCGAAGCAAUAUUACGGCCA
self-splicing fitness (ln) (30 °C): -0.992 ± 0.092 | self-splicing fitness (ln) (37 °C): -0.821 ± 0.1

GCGGAGCAAUAUUACGCCCU
self-splicing fitness (ln) (37 °C): -1.81 ± 0.56

CUGUAGCAAUAUUACGCCGA
self-splicing fitness (ln) (30 °C): -4.16 ± 1

GAGGAGCAAUAUUACGGCAG
self-splicing fitness (ln) (30 °C): -2.79 ± 0.71

AUGGAGCAAUAUUACGAAGC
self-splicing fitness (ln) (30 °C): -3.57 ± 0.73 | self-splicing fitness (ln) (37 °C): -2.16 ± 0.79

GGCCAGCAAUAUUACGCCAA
self-splicing fitness (ln) (30 °C): -1.22 ± 0.65 | self-splicing fitness (ln) (37 °C): -2.77 ± 1.1

AUCCAGCAAUAUUACGUCGA
self-splicing fitness (ln) (30 °C): -0.897 ± 0.097 | self-splicing fitness (ln) (37 °C): -0.557 ± 0.12

UAGGAGCAAUAUUACGCGGC
self-splicing fitness (ln) (37 °C): -2.67 ± 1.1

AUUGAGCAAUAUUACGGAGA
self-splicing fitness (ln) (30 °C): -2.77 ± 1.1

AAGUAGCAAUAUUACGGUGC
self-splicing fitness (ln) (30 °C): -3.66 ± 0.53

AGGGAGCAAUAUUACGCCCU
self-splicing fitness (ln) (30 °C): -0.86 ± 1.4 | self-splicing fitness (ln) (37 °C): -0.693 ± 1.4

CUCGAGCAAUAUUACGUGCU
self-splicing fitness (ln) (37 °C): -2.8 ± 0.53

UGGGAGCAAUAUUACGCUUU
self-splicing fitness (ln) (30 °C): -4.91 ± 1

CUUUAGCAAUAUUACGCUUC
self-splicing fitness (ln) (30 °C): -4.03 ± 0.51

GCGAAGCAAUAUUACGCUAC
self-splicing fitness (ln) (30 °C): -3.21 ± 0.84 | self-splicing fitness (ln) (37 °C): -2.54 ± 1.1

AGGGAGCAAUAUUACGGAAC
self-splicing fitness (ln) (30 °C): -3.01 ± 0.38 | self-splicing fitness (ln) (37 °C): -2.68 ± 0.41

GCACAGCAAUAUUACGUUCU
self-splicing fitness (ln) (30 °C): -0.579 ± 0.054 | self-splicing fitness (ln) (37 °C): -0.524 ± 0.068

CCAGAGCAAUAUUACGUCAC
self-splicing fitness (ln) (37 °C): -0.927 ± 0.87
